According to paper PMC7592556:
Results are given in words; binding and its absence hold for the method and conditions named. Binding seen in cells or lysates may run through a third protein. Some binding calls cover weakened binding; strength is not graded here.

Chains of the proteins cited; added tags and fusions are not shown. Lines headed by an entry give the natural chain unless they say otherwise; changes in a name come on top. Residues count along the entry.
UniProt Q9JLU4: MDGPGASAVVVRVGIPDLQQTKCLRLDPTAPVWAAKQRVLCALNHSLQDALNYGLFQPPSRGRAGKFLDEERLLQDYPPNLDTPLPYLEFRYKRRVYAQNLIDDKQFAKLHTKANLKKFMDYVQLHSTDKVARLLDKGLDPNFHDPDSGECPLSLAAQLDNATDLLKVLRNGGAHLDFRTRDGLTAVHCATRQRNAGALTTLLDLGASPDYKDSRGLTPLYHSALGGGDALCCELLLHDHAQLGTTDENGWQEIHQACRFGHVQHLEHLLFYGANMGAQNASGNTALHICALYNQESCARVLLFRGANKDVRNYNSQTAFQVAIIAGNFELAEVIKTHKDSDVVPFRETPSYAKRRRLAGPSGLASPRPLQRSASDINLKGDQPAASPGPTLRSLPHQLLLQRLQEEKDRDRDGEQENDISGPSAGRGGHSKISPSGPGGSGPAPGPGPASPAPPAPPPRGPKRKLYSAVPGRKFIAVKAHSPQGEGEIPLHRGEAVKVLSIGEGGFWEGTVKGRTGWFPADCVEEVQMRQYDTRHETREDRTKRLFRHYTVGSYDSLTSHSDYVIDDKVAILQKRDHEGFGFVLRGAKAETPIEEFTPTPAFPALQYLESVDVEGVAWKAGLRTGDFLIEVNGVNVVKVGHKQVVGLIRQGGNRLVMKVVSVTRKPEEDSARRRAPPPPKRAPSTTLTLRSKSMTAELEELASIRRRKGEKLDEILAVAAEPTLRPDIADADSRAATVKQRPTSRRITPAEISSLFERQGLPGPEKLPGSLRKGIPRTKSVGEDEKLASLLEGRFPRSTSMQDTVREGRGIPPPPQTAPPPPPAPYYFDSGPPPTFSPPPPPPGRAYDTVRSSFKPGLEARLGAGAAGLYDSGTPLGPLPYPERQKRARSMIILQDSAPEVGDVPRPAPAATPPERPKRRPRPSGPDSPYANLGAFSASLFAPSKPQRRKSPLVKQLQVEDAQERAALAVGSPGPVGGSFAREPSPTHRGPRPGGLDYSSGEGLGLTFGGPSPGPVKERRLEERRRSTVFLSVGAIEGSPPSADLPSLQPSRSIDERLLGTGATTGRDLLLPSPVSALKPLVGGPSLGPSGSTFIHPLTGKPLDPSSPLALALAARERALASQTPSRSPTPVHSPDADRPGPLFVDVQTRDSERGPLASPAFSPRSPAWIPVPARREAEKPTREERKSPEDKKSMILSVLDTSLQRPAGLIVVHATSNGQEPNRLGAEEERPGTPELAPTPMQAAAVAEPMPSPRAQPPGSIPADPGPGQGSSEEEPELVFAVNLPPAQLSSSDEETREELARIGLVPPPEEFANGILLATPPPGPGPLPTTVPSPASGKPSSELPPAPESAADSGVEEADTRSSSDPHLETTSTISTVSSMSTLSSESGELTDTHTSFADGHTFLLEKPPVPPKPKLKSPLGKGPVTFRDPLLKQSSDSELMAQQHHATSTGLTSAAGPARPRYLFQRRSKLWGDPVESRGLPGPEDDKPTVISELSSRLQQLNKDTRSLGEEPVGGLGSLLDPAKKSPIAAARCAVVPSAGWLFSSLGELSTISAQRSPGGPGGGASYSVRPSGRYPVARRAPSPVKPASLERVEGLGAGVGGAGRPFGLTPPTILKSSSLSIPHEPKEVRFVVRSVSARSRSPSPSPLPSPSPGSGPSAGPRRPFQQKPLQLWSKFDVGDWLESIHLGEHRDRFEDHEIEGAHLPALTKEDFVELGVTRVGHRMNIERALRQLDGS
His6-SUMO fusion protein of the complete Shank3 N-terminus (SPN-Ank, residues 1-348): residues 1-348 of Q9JLU4
His6-SUMO fusion protein of the Shank3 Ank repeats (residues 99-348): residues 99-348 of Q9JLU4
UniProt O88704: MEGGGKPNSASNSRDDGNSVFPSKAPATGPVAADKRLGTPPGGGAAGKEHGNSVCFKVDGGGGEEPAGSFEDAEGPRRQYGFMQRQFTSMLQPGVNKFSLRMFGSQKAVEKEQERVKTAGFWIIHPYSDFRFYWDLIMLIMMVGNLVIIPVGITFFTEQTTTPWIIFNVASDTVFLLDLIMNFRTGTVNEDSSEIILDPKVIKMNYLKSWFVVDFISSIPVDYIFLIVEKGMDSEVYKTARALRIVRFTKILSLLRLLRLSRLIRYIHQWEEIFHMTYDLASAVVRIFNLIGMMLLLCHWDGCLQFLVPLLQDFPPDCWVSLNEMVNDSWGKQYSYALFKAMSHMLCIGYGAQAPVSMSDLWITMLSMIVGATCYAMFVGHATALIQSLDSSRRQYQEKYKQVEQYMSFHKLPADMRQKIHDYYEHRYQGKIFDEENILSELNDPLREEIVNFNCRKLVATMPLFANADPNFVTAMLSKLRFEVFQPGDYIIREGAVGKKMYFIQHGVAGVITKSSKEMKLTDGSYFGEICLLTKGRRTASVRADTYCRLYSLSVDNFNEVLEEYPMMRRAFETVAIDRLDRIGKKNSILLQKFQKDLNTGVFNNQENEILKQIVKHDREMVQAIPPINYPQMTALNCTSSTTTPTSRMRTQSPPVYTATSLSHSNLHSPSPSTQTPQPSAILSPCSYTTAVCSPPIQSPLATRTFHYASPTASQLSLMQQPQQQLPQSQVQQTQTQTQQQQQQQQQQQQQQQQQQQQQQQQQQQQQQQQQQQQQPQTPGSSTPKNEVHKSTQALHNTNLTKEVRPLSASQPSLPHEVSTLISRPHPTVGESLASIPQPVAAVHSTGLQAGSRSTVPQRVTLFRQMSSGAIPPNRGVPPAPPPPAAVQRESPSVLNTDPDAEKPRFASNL
UniProt Q02248: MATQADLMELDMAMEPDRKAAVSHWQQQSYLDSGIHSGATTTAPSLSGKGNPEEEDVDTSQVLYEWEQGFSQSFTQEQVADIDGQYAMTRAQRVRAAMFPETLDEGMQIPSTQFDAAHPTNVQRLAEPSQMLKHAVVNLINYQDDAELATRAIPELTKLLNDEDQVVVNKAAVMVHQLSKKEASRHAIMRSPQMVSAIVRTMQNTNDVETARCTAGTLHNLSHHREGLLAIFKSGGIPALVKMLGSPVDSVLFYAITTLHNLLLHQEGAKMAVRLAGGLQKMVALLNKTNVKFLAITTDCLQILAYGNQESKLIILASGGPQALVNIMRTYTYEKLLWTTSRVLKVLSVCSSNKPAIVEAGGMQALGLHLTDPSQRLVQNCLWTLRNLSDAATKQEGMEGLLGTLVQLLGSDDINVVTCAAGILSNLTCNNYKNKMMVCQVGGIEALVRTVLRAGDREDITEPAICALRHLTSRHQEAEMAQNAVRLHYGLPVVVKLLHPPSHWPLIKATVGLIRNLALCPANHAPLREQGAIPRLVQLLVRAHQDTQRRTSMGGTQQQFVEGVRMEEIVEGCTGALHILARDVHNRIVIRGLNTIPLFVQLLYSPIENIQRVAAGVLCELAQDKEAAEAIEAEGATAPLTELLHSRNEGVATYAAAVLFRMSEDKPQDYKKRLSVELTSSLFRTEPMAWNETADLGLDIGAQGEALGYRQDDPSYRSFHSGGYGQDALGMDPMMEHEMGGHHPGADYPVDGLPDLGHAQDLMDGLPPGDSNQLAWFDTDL

Key:
[1] = target: His6-SUMO fusion protein of the complete Shank3 N-terminus (SPN-Ank, residues 1-348) (rat) (UniProt Q9JLU4); experiment: pull-down; immobilized His6-SUMO fusion proteins of Shank3 (SPN-Ank or Ank repeats alone; SUMO control) incubated with lysates of 293T cells expressing GFP-tagged proteins; Western blot; only the target purified
[2] = target: His6-SUMO fusion protein of the Shank3 Ank repeats (residues 99-348) (rat) (UniProt Q9JLU4); experiment: as above
[3] = target: RFP-tagged full-length Shank3 (rat) (UniProt Q9JLU4); experiment: co-IP; HCN1 and full-length Shank3 in transfected cells; precipitating matrix not told (Additional file 1: Fig. S2)
[4] = target: RFP-tagged full-length Shank3 (rat) (UniProt Q9JLU4); experiment: co-IP; 293T cells coexpressing RFP-tagged Shank3 constructs with GFP-/Emerald-tagged catenins; RFP-trap beads; IP buffer (50 mM Tris pH 8, 120 mM NaCl, 0.5% NP40, 1 mM EDTA); Western blot

Substance | binding [1] | binding [2] | binding [3] | binding [4]
EGFP-tagged HCN1 (from UniProt O88704 1-910) | no binding | no binding | no binding | –
Emerald-β-catenin (from UniProt Q02248 1-781) | no binding | no binding | – | binds
